From patent publication US20120027793A1
Results are given in words; binding and its absence hold for the method and conditions named. In cells and extracts the contact can be indirect. Some entries that bind do so weakly or less than the wild type.

Protein sequences, listed by entry. Tags and fused reporters are not part of them. Lines headed by an entry give the natural chain unless they say otherwise; changes in a name come on top.
UniProt P14434: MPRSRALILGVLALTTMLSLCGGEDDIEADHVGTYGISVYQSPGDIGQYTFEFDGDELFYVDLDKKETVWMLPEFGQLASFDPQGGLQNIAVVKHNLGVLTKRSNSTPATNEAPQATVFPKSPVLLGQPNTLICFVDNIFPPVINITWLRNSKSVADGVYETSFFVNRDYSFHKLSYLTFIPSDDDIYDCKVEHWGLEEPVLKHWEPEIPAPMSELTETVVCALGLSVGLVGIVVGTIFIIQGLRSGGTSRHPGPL
UniProt P14483: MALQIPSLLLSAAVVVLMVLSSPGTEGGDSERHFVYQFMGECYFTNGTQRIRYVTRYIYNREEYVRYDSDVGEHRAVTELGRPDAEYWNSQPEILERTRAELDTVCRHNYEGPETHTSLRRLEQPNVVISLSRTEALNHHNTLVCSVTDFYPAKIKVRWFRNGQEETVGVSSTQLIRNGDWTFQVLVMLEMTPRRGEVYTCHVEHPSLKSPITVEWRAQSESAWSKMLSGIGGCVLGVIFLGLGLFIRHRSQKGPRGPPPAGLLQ

Legend:
[1] = target: MHC class I H-2K^b (mouse (C57BL/6)); test: acid elution from immunoaffinity-purified H-2Kb of C. muridarum-infected dendritic cells, LC-MS/MS
[2] = target: MHC class II I-A^b (mouse (C57BL/6)) (UniProt P14434+P14483); test: acid elution from immunoaffinity-purified I-Ab of C. muridarum-infected dendritic cells, LC-MS/MS

Binder	binding [1]	binding [2]
SSLFLVKL [Amino acid permease peptide SSLFLVKL (SEQ ID NO: 19)]	binds	–
SPIYVDPAAAGGQPPA [Polymorphic membrane protein G1 family peptide … (SEQ ID NO: 27)]	–	binds
ASPIYVDPAAAGGQPPA [Polymorphic membrane protein G1 family peptide … (SEQ ID NO: 28)]	–	binds
MTTVHAATATQSVVD [Glyceraldehyde 3-phosphate dehydrogenase peptide … (SEQ ID NO: 32)]	–	binds
GNEVFVSPAAHIID [Ribosomal protein L6 peptide … (SEQ ID NO: 20)]	–	binds
GNEVFVSPAAHIIDRPG [Ribosomal protein L6 peptide … (SEQ ID NO: 21)]	–	binds
KGNEVFVSPAAHIIDRPG [Ribosomal protein L6 peptide … (SEQ ID NO: 22)]	–	binds
EVFVSPAAHIIDRPG [Ribosomal protein L6 peptide … (SEQ ID NO: 23)]	–	binds
SPGQTNYAAAKAGIIG [3-oxoacyl-(acyl carrier protein) reductase peptide … (SEQ ID NO: 24)]	–	binds
SPGQTNYAAAKAGIIGFS [3-oxoacyl-(acyl carrier protein) reductase peptide … (SEQ ID NO: 25)]	–	binds
